Test results published in article doi:10.1101/702415 (bioRxiv, 2019).
Results are given in words; binding and its absence hold for the method and conditions named. Some results given as binding are weak or reduced against the parent protein; the word gives no strength.

Target: Ups1 T64C/K140C mutant (S. cerevisiae) (UniProt Q05776)
Assay: cross-linking

- binding: binds weakly
B1: Ups1 T64C/K140C mutant (protein, UniProt Q05776 1-175)
chain: MVLLHKSTHIFPTDFASVSRAFFNRYPNPYSPHVLSIDTISRNVDQEGNLRTTRLLKKSGKLPCWVKPFLRGITETWIIEVSVVNPANSTMKTYTRNLDHTGIMKVEEYTTYQFDSATSSTIADSRVKFSSGFNMGIKSCVEDWSRTKFDENVKKSRMGMAFVIQKLEEARNPQF
